In US5389644A, “1,4-dihydropyridine compounds” (priority 1992, dated 1995):

Experiments:
KB-A1 = assay: Cytotoxicity: reversal of resistance to adriamycin (reversion factor), line KB-A1; type: cell-based, Human
Description: (§1) The parameter measured is the cytotoxicity of the antitumour drug, quantified in the absence and in the presence of the reversing compound. […] The compounds tested for their capacity to reverse the resistance are added at the same time as the cytotoxic agent. The cells are then incubated for 4 days.

DC-3F/AD = assay: Cytotoxicity: reversal of resistance to actinomycin D (reversion factor), line DC-3F/AD; type: cell-based, Chinese hamster
Description: as §1, with “compound. Two resistant cell lines were used: 1 Chinese hamster lung line, DC-3F/AD, the resistance of which was induced by actinomycin D.” for “compound.”

SMILES: COC(=O)C1=C(C)NC(C)=C(C(=O)OC)C1c1ccccc1[N+](=O)[O-] [NIFEDIPINE, nifedipine, reference compound]
- reversion factor (RF) (KB-A1; compound 1 μM): 1.0
- reversion factor (RF) (KB-A1; compound 5 μM): 1.0
- reversion factor (RF) (DC-3F/AD; compound 1 μM): 1.2
- reversion factor (RF) (DC-3F/AD; compound 5 μM): 5.8
